# Primary screen of a compound library

The values are deposited in ChEMBL (CHEMBL3988442, “University of Dundee, Small-Polar-MMV Screening Library” (2021)).

Each number is a percent effect as filed. The record does not define 0% and 100%; most values in the screen are far below 50% and negative numbers occur (in some assays of this library far below -100). The compounds are a random part of those screened.

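Whole-cell assay for inhibitors of Mycobacterium tuberculosis growth, labelled Cornell in the record; the read-out is not stated. The concentration is filed as 10 mM, unlikely as a test dose, so the dose is not known. Higher means stronger inhibition (inferred from two other growth screens of the library). About 53,000 compounds were tested under these conditions; 1.7% (about 900) showed 50% or more at least once.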

SMILES: COCCn1ccc2ccc(NC(=O)NCc3noc(C)n3)cc21
Percent Effect: 11.26

SMILES: CN1C(=O)CC(C(=O)O)C12CCN(c1ccc3c(n1)CCCC3)CC2 (stereo unspecified)
Percent Effect: -30.48

SMILES: O=S(=O)(c1ccccc1)N1CCOCC(Cc2cccnc2)C1 (stereo unspecified)
Percent Effect: -14.25

SMILES: Cc1noc(C(C)C)c1C(=O)NCC1CCCN1Cc1ccccc1 (stereo unspecified)
Percent Effect: 13.89

SMILES: CCOC1COC2(CCN(Cc3ccc4c(c3)OCO4)CC2)C1 (stereo unspecified)
Percent Effect: -0.2131

SMILES: Cn1cnc(-c2cc(C(=O)N3CCOCC3)c3ccccn23)c1
Percent Effect: 9.107

SMILES: COCCn1ccnc1C1CCN(C(=O)c2cccc(COC)n2)CC1
Percent Effect: 26.51

SMILES: CN(C)CCNCCC(c1ccccc1)C1CCOC(C)(C)C1.O=C(O)C(=O)O (stereo unspecified)
Percent Effect: 21.42

SMILES: Cc1cc(C2CCC2)nc(N(C)CCc2ccccn2)n1
Percent Effect: 45.87

SMILES: CNS(=O)(=O)c1ccc(CN2CCC(c3ccncc3)CC2)cc1
Percent Effect: 4.42

SMILES: [H][C@@]12CS(=O)(=O)C[C@]1([H])N(Cc1ccc(C)c(C)c1)CCN2CC(=O)N(C)C
Percent Effect: 6.431

SMILES: Cn1nnc(C2(NC(=O)c3ccccc3)CCCC2)n1
Percent Effect: -30.75

SMILES: c1cn(Cc2nnc(C3CCN(C4CCNCC4)CC3)n2C2CC2)cn1
Percent Effect: 19.26

SMILES: [H][C@]12CCN(Cc3ccco3)[C@@]1([H])CC[C@H](COCC1CCOCC1)O2
Percent Effect: 24.46

SMILES: Cn1ccnc1CN1CCCN(C(=O)c2ccc3ccccc3c2)CC1
Percent Effect: 4.708

SMILES: O=C(CCC(=O)Nc1nnc(C(F)(F)F)s1)NCC1CCCO1 (stereo unspecified)
Percent Effect: 28.4

SMILES: CN1CCCCC1CCC(=O)NCCCn1ncc2ccccc21 (stereo unspecified)
Percent Effect: -9.657

SMILES: Cn1ccnc1COc1ccc(COC(=O)C2CCCO2)cc1 (stereo unspecified)
Percent Effect: -2.269

SMILES: Cc1ccnc(C(NC(=O)c2ncoc2C)C2CC2)n1 (stereo unspecified)
Percent Effect: -52.33

SMILES: CC(CNS(C)(=O)=O)c1ccc(F)c(F)c1 (stereo unspecified)
Percent Effect: -7.319

SMILES: CS(=O)(=O)N1CCC(Cc2cnc(Br)cn2)CC1
Percent Effect: 9.086

SMILES: O=C(CCc1ccccc1)N1CC(n2cncn2)C1
Percent Effect: 21.68

SMILES: [H][C@]12CN(C(=O)OC)CCN1C[C@@H](c1ccccc1)[C@@H]2C(=O)OCC
Percent Effect: 19.93

SMILES: O=C(O)C(F)(F)F.O=C(O)C(F)(F)F.[H][C@]12C[C@@H](C(=O)Nc3cccnc3)CO[C@@]1([H])CCN(CCC)C2
Percent Effect: 16.4

SMILES: [H][C@]12C[C@@H](Cn3cncn3)N(C(C)=O)[C@@]1([H])CCN(C(=O)NC1CC1)C2
Percent Effect: -7.271

SMILES: CCCn1cc(-c2cc(-c3cnc(OC)nc3)c(C#N)c(N)n2)c(C)n1
Percent Effect: 56.67

SMILES: c1ccc2c(c1)CC(Cc1cc(N3CCCC3)cnn1)CO2 (stereo unspecified)
Percent Effect: 2.13

SMILES: CC1(C(=O)N2CCC(n3cc(C4(O)CCCC4)nn3)CC2)CCCCC1
Percent Effect: 14.52

SMILES: Cc1cnn(C2CCCN(C(=O)c3cnc4ccccc4n3)C2)c1 (stereo unspecified)
Percent Effect: 19.53

SMILES: CCCn1cnc2c1CN(C(=O)c1ccc(F)cc1)[C@H](C(=O)OC)C2
Percent Effect: -10.11

SMILES: CN(Cc1ccoc1)c1ccc(-c2nccn2C)nn1
Percent Effect: -10.91

SMILES: CC(NC(=O)c1ccnn1C)c1ccc(OCC2CC2)c(F)c1 (stereo unspecified)
Percent Effect: 34.16

SMILES: COC(=O)N1CCc2ccccc2C1C(=O)NCC(F)(F)F (stereo unspecified)
Percent Effect: 2.54

SMILES: Cc1cc(N2CCCN(C(=O)Cc3ccc(O)c(Cl)c3)CC2)ccn1
Percent Effect: -2.033

SMILES: O=C(NCC1CC1)C1CSCN1S(=O)(=O)c1cccc(F)c1 (stereo unspecified)
Percent Effect: -42.61

SMILES: Cc1noc(C(C)C)c1C(=O)NCC(c1cccc(F)c1)N(C)C (stereo unspecified)
Percent Effect: 17.5

SMILES: CCS(=O)(=O)N1CCc2ccc(NC(=O)Nc3ccc(F)cc3F)cc21
Percent Effect: 14.36

SMILES: COc1ccc(S(=O)(=O)C2CCN(C(=O)c3cc(C)cs3)CC2)cc1
Percent Effect: 19.34

SMILES: Cc1cccc(CO[C@H]2CO[C@@]3(CCN(S(=O)(=O)N(C)C)C3)C2)n1
Percent Effect: -18.65

SMILES: Cc1cc(CN(C)c2nc(-c3ccco3)nc3c2CCN(C)CC3)on1
Percent Effect: -7.403

SMILES: Cc1cn2c(n1)CCC(NC(=O)Cn1cncn1)C2 (stereo unspecified)
Percent Effect: -12.63

SMILES: O=S(=O)(c1ccccc1)N1CC[C@]2(C[C@@H](OCC3CC3)CO2)C1
Percent Effect: 19.67